This passage reports binding results from article PMC12264102.

No constants are given. Whether binding was seen depends on the method and setting. In cells and extracts the contact can be indirect. Where a sequence is shown, tags or fusion partners need not be part of it.

This assay deals with OTUD1 with residues 1-308 mutated. Kind of assay: co-IP; IP analysis of OTUD1 truncation constructs with SLC25A11; cell lysate, antibody overnight at 4 °C, Protein A/G magnetic beads, western blot; cells and tags not stated. In general terms: A western blot detects proteins with antibodies after separation by electrophoresis.

B1: SLC25A11-HA (pcDNA3.1-SLC25A11-HA) (protein, UniProt Q02978 1-314)
chain: MAATASAGAGGIDGKPRTSPKSVKFLFGGLAGMGATVFVQPLDLVKNRMQLSGEGAKTREYKTSFHALTSILKAEGLRGIYTGLSAGLLRQATYTTTRLGIYTVLFERLTGADGTPPGFLLKAVIGMTAGATGAFVGTPAEVALIRMTADGRLPADQRRGYKNVFNALIRITREEGVLTLWRGCIPTMARAVVVNAAQLASYSQSKQFLLDSGYFSDNILCHFCASMISGLVTTAASMPVDIAKTRIQNMRMIDGKPEYKNGLDVLFKVVRYEGFFSLWKGFTPYYARLGPHTVLTFIFLEQMNKAYKRLFLSG
For the molecule B1, the binding entry was “no binding”.
